Taken from: PubChem BioAssay AID652243 (Drosophila RNAi Screening Center, 2013)
The screen tested about 24,000 reagents; shown is a random part of those that have a named target and a result. Over the whole deposit, 246 (1%) are marked active. 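Plates not normalised; calls are printed but the firefly/Renilla ratio behind them is not deposited; fold cut for lowering reported inconsistently.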 Raw values vary from plate to plate and are shown uncorrected. Unmarked entries are inactive. The numbers tell different reagents against one gene apart. Names joined by + are all predicted targets of the reagent. Reagent sequences are not shown. Not given: the amount of reagent.

Screen: 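Fly regulators of androgen-dependent reporter output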 (primary screen)
Cells: Drosophila S2R+ cells
Reagent: long dsRNA against Drosophila genes
Timing: 72 h (48 h, then 24 h hormone)
Challenge: synthetic androgen R1881 at 10 nM for 24 h
Read-out: 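Firefly light from an androgen-responsive reporter and Renilla control light per well, raw and unnormalised, for each of two replicates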
Direction: firefly reporter light: higher = more light from androgen-responsive reporter; Renilla control light: higher = more constitutive control signal (cell number, transfection)
Call rule: 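Hit when the log firefly-to-Renilla ratio dropped or increased by a fixed fold versus the mean of GFP or LacZ controls across duplicate plates; lowering cut given as 1.5 and as 3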
Calls: active = hit: reporter lowered or raised; inactive = no hit

gene knocked down	reagent no.	firefly reporter light, replicate 1	firefly reporter light, replicate 2	Renilla control light, replicate 1	Renilla control light, replicate 2
Ude (Uracil-DNA degrading factor)	1	81963	37346	5.04e5	3.44e5
Tcs6 + PIG-P	1	21472	36025	96486	91087
Tcs6 + PIG-P	2	4.10e5	2.63e5	3.17e6	2.16e6
orion	1	2.64e5	2.96e5	2.66e6	2.66e6
orion	2	4.19e5	4.29e5	3.50e6	3.09e6
CG4622	1	6.20e5	4.43e5	1.55e6	1.04e6
mRRF2 (mitochondrial ribosome recycling factor 2)	1	2.47e5	2.96e5	3.34e6	2.72e6
CG15882	1	1.32e5	1.00e5	6.81e5	3.58e5
TrpRS-m (Tryptophanyl-tRNA synthetase, mitochondrial)	1	72537	55296	4.39e5	3.91e5
miple2 (midkine and pleiotrophin 2)	1	1.23e5	95306	1.10e6	1.30e6
FoxP (Forkhead box P)	1	81168	1.29e5	1.77e6	1.75e6
FoxP (Forkhead box P)	2	7.78e5	5.63e5	1.96e6	1.36e6
FoxP (Forkhead box P)	3	1.36e6	7.57e5	1.20e6	1.20e6
CG18418	1	1.15e6	6.18e5	1.58e6	7.97e5
CG18418	2	9.35e5	9.53e5	1.00e6	7.72e5
CG15403	1	1.12e5	1.17e5	1.06e6	9.59e5
dpr7 (defective proboscis extension response 7)	1	7.04e5	6.10e5	1.33e6	5.66e5
dpr7 (defective proboscis extension response 7)	2	3.82e5	2.67e5	7.93e5	8.64e5
CG1360	1	2.64e5	2.38e5	1.17e6	1.56e6
CG1360	2	6.43e5	6.04e5	1.22e6	1.22e6
CG2617	1	1.50e5	1.62e5	1.13e6	9.93e5
CG2617	2	6.84e5	8.30e5	6.32e5	5.90e5
Vha44 (Vacuolar H[+] ATPase 44kD subunit)	1	6.34e5	7.13e5	1.17e6	1.16e6
Vha44 (Vacuolar H[+] ATPase 44kD subunit)	2	1.30e5	1.55e5	1.35e6	1.35e6
Vha44 (Vacuolar H[+] ATPase 44kD subunit)	3	3.00e5	2.97e5	1.10e6	6.66e5

4 entries from above, set out differently:
CG1360 #2
- firefly reporter light, replicate 1: 6.43e5
- firefly reporter light, replicate 2: 6.04e5
- Renilla control light, replicate 1: 1.22e6
- Renilla control light, replicate 2: 1.22e6

CG2617 #1
- firefly reporter light, replicate 1: 1.50e5
- firefly reporter light, replicate 2: 1.62e5
- Renilla control light, replicate 1: 1.13e6
- Renilla control light, replicate 2: 9.93e5

CG2617 #2
- firefly reporter light, replicate 1: 6.84e5
- firefly reporter light, replicate 2: 8.30e5
- Renilla control light, replicate 1: 6.32e5
- Renilla control light, replicate 2: 5.90e5

Vha44 (Vacuolar H[+] ATPase 44kD subunit) #1
- firefly reporter light, replicate 1: 6.34e5
- firefly reporter light, replicate 2: 7.13e5
- Renilla control light, replicate 1: 1.17e6
- Renilla control light, replicate 2: 1.16e6

Further records follow:
gene knocked down	reagent no.	firefly reporter light, replicate 1	firefly reporter light, replicate 2	Renilla control light, replicate 1	Renilla control light, replicate 2
Rcd2 (Reduction in Cnn dots 2)	1	1.47e5	1.23e5	2.37e6	2.07e6
mRpL38 (mitochondrial ribosomal protein L38)	1	5.76e5	6.18e5	4.40e6	4.57e6
mRpL38 (mitochondrial ribosomal protein L38)	2	4.84e5	5.65e5	1.40e6	1.45e6
Rcd7 (Reduction in Cnn dots 7)	1	2.75e5	2.29e5	2.62e6	2.75e6
dor (deep orange)	1	1.19e5	92081	1.05e6	8.17e5
dor (deep orange)	2	2.06e5 (active)	1.82e5	7.71e5	9.78e5
Prosbeta2R2 (Proteasome beta2 subunit-related 2)	1	48580	48412	9.57e5	1.19e6
CG9581	1	5.44e5	4.20e5	3.23e6	3.15e6
CG9581	2	9.03e5	8.92e5	2.27e6	1.74e6
asRNA:CR43468 + Lfg	1	3.46e5	2.78e5	1.73e6	1.73e6
Pdf (Pigment-dispersing factor)	1	4.33e5	3.14e5	2.72e6	3.00e6
TRAM	1	2.34e5	3.39e5	4.69e6	3.75e6
TRAM	2	2.08e5	2.45e5	2.73e6	1.74e6
fdl (fused lobes)	1	2.52e5	2.01e5	1.54e6	1.46e6
fdl (fused lobes)	2	2.85e5	2.95e5	5.87e5	4.73e5
CG2211	1	79204	84596	6.08e5	6.93e5
CG14840	1	86784	81347	1.86e6	1.89e6
CG14840	2	4.34e5	3.01e5	1.97e6	1.18e6
Jhbp1 (Juvenile hormone binding protein 1)	1	31360	68560	1.38e6	1.54e6
Jhbp1 (Juvenile hormone binding protein 1)	2	4.20e5	3.56e5	5.71e5	6.73e5
Npc2g (Niemann-Pick type C-2g)	1	2.30e5	2.33e5	2.17e6	2.93e6
Cp7Fa (Chorion protein a at 7F)	1	3.28e5	4.28e5	2.07e6	2.03e6
Cp7Fa (Chorion protein a at 7F)	2	2.28e5	1.75e5	1.27e6	1.78e6
Cp7Fa (Chorion protein a at 7F)	3	7.01e5	7.46e5	1.69e6	1.76e6
Cyp4e1 (Cytochrome P450 4e1)	1	2.41e5	3.26e5	1.67e6	1.40e6
Cyp4e1 (Cytochrome P450 4e1)	2	2.91e5	2.89e5	5.77e5	5.60e5
CG31809	1	1.83e5	1.95e5	3.57e5	6.12e5
CG13203	1	2.62e5	2.32e5	1.91e6	1.76e6
CG13203	2	3.80e5	3.02e5	6.39e5	9.13e5
CG34375	1	1.99e5	2.02e5	3.01e6	2.77e6
CG34375	2	76177	86473	1.98e6	2.23e6
CG34375	3	1.18e6	9.20e5	7.56e5	7.75e5
CG7720	1	1.24e5	1.20e5	9.22e5	1.02e6
CG7720	2	4.82e5	7.26e5	2.48e6	3.20e6
